Positions count from the first letter of the chain named. No constants are given. Whether binding was seen depends on the method and setting. Binding calls can cover weak binding; strength is not graded here.
Columns and labels:
[1] = target: SIRP-α mouse NOD (mouse (NOD)) (UniProt P97797); assay: SPR, antibody on GLC chip, SIRP as analyte
[2] = target: SIRP-α mouse BALBc (mouse (BALBc)) (UniProt P97797); assay: SPR, antibody on GLC chip, SIRP as analyte

By UniProt entry, the sequences of proteins in these tests, tags left out. Where a name states a change or a piece, a line headed by the entry shows the natural chain unless it says otherwise.
UniProt P97797: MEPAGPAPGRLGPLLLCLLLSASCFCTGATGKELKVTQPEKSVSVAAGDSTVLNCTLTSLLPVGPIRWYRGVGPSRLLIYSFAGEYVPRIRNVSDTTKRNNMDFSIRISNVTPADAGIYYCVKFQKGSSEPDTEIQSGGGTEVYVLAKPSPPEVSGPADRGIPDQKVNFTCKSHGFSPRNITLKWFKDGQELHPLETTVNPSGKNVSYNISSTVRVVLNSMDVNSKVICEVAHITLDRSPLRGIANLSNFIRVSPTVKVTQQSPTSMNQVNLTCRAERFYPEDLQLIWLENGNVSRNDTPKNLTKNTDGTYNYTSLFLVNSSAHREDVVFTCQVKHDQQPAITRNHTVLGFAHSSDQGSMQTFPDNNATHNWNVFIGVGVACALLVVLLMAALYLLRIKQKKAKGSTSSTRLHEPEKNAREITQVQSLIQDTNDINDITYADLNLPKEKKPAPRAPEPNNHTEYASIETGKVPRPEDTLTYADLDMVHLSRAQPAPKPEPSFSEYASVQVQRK

B1: Hum1/AB21_HC_Mutall (antibody, V domains shown)
VH: EVQLVESGGGVVQPGGSLRLSCAASGFTFSSNAMSWVRQAPGKGLEWVAGISAGGSDTYYPASVKGRFTISRDNSKNTLYLQMNSLRAEDTAVYYCARETWNHLFDYWGQGTLVTVSS
VL: SYELTQPPSVSVSPGQTARITCSGGSYSSYYYAWYQQKPGQAPVTLIYSDDKRPSNIPERFSGSSSGTTVTLTISGVQAEDEADYYCGGYDQSSYTNPFGGGTKLTVL
binding [1]: binds | binding [2]: binds

B2: Hum8/AB21_HC_Mutall (antibody, V domains shown)
VH: B1 VH
VL: B1 VL with S26A, T45L, L46V, D51S, N56G
binding [1]: binds | binding [2]: binds

B3: Hum9/AB21_HC_Mutall (antibody, V domains shown)
VH: B1 VH
VL: B1 VL with S26A, T45L, L46V, N56G
binding [1]: binds | binding [2]: binds

— US20220096649A1
